PubChem BioAssay AID1159579 – Peter MacCallum Cancer Centre | 2015

- Purpose: 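Follow-up screen seeking modulators of motility in lymphatic endothelial cells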 (follow-up of hits)
- System: human dermal lymphatic endothelial cells
- Knock-down reagent: single siRNA against human genes, 25 nM
- Read-out: 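Scratch wound imaging measuring area filled by moving cells plus nuclei number, averaged over two wells and scaled to mock-transfected controls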
- Reading the numbers: migration relative to mock: higher = more migration into the scratch; mean nuclei count: higher = more cells remaining
- Active means: 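a ratio of at most 0.6 or at least 1.3 marks altered migration and an active call; a mean nuclei count under 3300 forces an inactive call regardless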
- Calls: active = migration changed (impaired or accelerated); inactive = no migration change, or too few cells
The deposit covers about 2,000 reagents; shown is an unselected part. Of all reagents, 549 (27%) are marked active. 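Some migration ratios are negative; siRNAs with too few cells are inactive whatever their migration ratio.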 A number with no mark means an inactive call. Reagents against one gene are numbered here. Not given: the time to read-out.

The first 5 records, to show the layout:
gene symbol | siRNA no. | migration relative to mock | migration and cell number class | mean nuclei count
CFAP251 (cilia and flagella associated protein 251) | 1 | 0.78 | no change in migration or cell number | 5634
CFAP251 (cilia and flagella associated protein 251) | 2 | 1.08 | no change in migration or cell number | 7288
CFAP251 (cilia and flagella associated protein 251) | 3 | 0.82 | no change in migration or cell number | 4682
CFAP251 (cilia and flagella associated protein 251) | 4 | 1.14 | no change in migration or cell number | 4152
ACTBL2 (actin beta like 2) | 1 | 0.74 | no change in migration or cell number | 6831

The listing, repeating the preview:
gene symbol | siRNA no. | migration relative to mock | migration and cell number class | mean nuclei count
CFAP251 (cilia and flagella associated protein 251) | 1 | 0.78 | no change in migration or cell number | 5634
CFAP251 (cilia and flagella associated protein 251) | 2 | 1.08 | no change in migration or cell number | 7288
CFAP251 (cilia and flagella associated protein 251) | 3 | 0.82 | no change in migration or cell number | 4682
CFAP251 (cilia and flagella associated protein 251) | 4 | 1.14 | no change in migration or cell number | 4152
ACTBL2 (actin beta like 2) | 1 | 0.74 | no change in migration or cell number | 6831
ACTBL2 (actin beta like 2) | 2 | 1.26 | no change in migration or cell number | 5994
ACTBL2 (actin beta like 2) | 3 | -0.16 (active) | migration reduced | 4343
ACTBL2 (actin beta like 2) | 4 | 1 | no change in migration or cell number | 5548
SETD2 (SET domain containing 2, histone lysine methyltransferase) | 1 | 0.48 (active) | migration reduced | 5258
SETD2 (SET domain containing 2, histone lysine methyltransferase) | 2 | 0.82 | no change in migration or cell number | 6436
SETD2 (SET domain containing 2, histone lysine methyltransferase) | 3 | 0.6 (active) | migration reduced | 6328
SETD2 (SET domain containing 2, histone lysine methyltransferase) | 4 | 0.8 | no change in migration or cell number | 5474
TCL1B (TCL1 family AKT coactivator B) | 1 | 0.11 (active) | migration reduced | 3621
TCL1B (TCL1 family AKT coactivator B) | 2 | 0.82 | no change in migration or cell number | 5301
TCL1B (TCL1 family AKT coactivator B) | 3 | 1.12 | no change in migration or cell number | 4746
TCL1B (TCL1 family AKT coactivator B) | 4 | 0.8 | no change in migration or cell number | 4950
MTRFR (mitochondrial translation release factor in rescue) | 1 | 0.96 | no change in migration or cell number | 5874
MTRFR (mitochondrial translation release factor in rescue) | 2 | 1.03 | no change in migration or cell number | 5040
MTRFR (mitochondrial translation release factor in rescue) | 3 | 1.08 | no change in migration or cell number | 5376
MTRFR (mitochondrial translation release factor in rescue) | 4 | 1 | no change in migration or cell number | 6215
GH1 (growth hormone 1) | 1 | 1.1 | no change in migration or cell number | 5684
GH1 (growth hormone 1) | 2 | 0.66 | no change in migration or cell number | 4155
GH1 (growth hormone 1) | 3 | 0.55 (active) | migration reduced | 4814
GH1 (growth hormone 1) | 4 | 0.5 (active) | migration reduced | 5502
TBCB (tubulin folding cofactor B) | 1 | 1.01 | no change in migration or cell number | 5832
TBCB (tubulin folding cofactor B) | 2 | 0.66 | no change in migration or cell number | 7570
TBCB (tubulin folding cofactor B) | 3 | 0.75 | no change in migration or cell number | 5345
TBCB (tubulin folding cofactor B) | 4 | 0.91 | no change in migration or cell number | 6144
RANBP3L (RAN binding protein 3 like) | 1 | 0.43 (active) | migration reduced | 5538
RANBP3L (RAN binding protein 3 like) | 2 | 0.82 | no change in migration or cell number | 6360
RANBP3L (RAN binding protein 3 like) | 3 | 0.08 (active) | migration reduced | 4798
RANBP3L (RAN binding protein 3 like) | 4 | 0.99 | no change in migration or cell number | 5173
SACK1A (scaffolding CK1 anchoring protein A) | 1 | 0.76 | no change in migration or cell number | 4151
SACK1A (scaffolding CK1 anchoring protein A) | 2 | -0.2 | too few cells; migration not scored | 2266
SACK1A (scaffolding CK1 anchoring protein A) | 3 | 0.81 | no change in migration or cell number | 4907
SACK1A (scaffolding CK1 anchoring protein A) | 4 | 0.87 | no change in migration or cell number | 4815
CWC22 (CWC22 spliceosome associated protein) | 1 | 0.67 | no change in migration or cell number | 5765
CWC22 (CWC22 spliceosome associated protein) | 2 | 0.3 (active) | migration reduced | 5154
CWC22 (CWC22 spliceosome associated protein) | 3 | 0.59 (active) | migration reduced | 6565
CWC22 (CWC22 spliceosome associated protein) | 4 | 0.75 | no change in migration or cell number | 6143
OBP2A (odorant binding protein 2A) | 1 | 0.69 | no change in migration or cell number | 5746
OBP2A (odorant binding protein 2A) | 2 | 0.74 | no change in migration or cell number | 4212
OBP2A (odorant binding protein 2A) | 3 | 1.04 | no change in migration or cell number | 7130
OBP2A (odorant binding protein 2A) | 4 | 0.76 | no change in migration or cell number | 5187
ACOT13 (acyl-CoA thioesterase 13) | 1 | 0.76 | no change in migration or cell number | 5619
ACOT13 (acyl-CoA thioesterase 13) | 2 | 1.1 | no change in migration or cell number | 6680
ACOT13 (acyl-CoA thioesterase 13) | 3 | 0.79 | no change in migration or cell number | 7444
ACOT13 (acyl-CoA thioesterase 13) | 4 | 0.58 (active) | migration reduced | 6788
